# Source: PubChem BioAssay (EPA / NIEHS)
# Protein sequences, listed by entry. Tags and fused reporters are not part of them. Lines headed by an entry give the natural chain unless they say otherwise; changes in a name come on top.
# UniProt Q9UNQ0: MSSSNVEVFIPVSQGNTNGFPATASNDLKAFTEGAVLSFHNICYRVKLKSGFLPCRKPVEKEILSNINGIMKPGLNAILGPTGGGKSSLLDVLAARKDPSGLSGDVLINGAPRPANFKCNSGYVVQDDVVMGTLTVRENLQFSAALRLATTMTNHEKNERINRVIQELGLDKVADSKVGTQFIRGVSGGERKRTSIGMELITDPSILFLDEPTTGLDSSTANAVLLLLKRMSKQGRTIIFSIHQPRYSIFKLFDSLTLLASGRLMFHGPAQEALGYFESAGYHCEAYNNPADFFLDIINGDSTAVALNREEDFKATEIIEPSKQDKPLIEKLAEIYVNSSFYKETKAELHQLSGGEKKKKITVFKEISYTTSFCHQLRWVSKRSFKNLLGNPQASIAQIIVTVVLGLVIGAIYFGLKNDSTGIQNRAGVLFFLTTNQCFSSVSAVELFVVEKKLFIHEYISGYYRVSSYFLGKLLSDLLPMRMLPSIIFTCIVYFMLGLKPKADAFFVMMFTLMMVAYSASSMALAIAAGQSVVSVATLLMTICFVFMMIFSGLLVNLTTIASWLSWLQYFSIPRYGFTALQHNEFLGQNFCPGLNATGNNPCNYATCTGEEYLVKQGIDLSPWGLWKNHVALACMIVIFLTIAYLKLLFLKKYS
# UniProt P20813: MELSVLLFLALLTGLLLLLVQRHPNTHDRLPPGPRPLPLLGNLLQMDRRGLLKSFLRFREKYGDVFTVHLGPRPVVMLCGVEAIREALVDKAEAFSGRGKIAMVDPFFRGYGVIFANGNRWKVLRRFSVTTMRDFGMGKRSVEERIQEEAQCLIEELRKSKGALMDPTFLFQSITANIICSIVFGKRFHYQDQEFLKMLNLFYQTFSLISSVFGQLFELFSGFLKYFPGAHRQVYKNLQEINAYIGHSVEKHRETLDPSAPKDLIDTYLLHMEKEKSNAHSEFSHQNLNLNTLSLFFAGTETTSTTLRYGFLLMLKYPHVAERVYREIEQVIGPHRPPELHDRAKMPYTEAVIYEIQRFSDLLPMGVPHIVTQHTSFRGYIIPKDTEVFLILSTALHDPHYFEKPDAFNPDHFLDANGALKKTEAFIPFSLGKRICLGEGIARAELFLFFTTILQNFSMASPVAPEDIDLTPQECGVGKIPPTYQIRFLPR
# UniProt P04406: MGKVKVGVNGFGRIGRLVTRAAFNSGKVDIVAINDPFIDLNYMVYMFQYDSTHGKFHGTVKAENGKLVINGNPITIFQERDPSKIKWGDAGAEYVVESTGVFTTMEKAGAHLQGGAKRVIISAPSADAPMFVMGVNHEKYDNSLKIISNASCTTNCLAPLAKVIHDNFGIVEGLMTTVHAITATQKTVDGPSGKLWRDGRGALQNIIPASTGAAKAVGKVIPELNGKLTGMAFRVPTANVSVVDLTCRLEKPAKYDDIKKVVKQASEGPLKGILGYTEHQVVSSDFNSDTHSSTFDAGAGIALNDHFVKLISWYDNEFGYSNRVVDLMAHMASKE
# UniProt P33261, whole entry, looked up: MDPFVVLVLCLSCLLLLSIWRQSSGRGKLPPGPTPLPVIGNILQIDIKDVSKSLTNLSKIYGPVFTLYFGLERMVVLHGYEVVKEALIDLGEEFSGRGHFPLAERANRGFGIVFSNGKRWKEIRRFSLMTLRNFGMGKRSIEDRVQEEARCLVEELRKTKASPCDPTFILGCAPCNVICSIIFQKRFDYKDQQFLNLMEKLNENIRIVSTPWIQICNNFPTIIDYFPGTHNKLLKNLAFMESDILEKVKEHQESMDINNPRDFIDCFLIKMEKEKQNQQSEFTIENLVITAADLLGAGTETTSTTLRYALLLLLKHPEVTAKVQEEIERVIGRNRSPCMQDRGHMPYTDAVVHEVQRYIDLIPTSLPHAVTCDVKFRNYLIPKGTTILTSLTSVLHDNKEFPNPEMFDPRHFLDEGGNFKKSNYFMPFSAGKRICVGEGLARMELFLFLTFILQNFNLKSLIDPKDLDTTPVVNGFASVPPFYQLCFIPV
# UniProt P08684, whole entry, looked up: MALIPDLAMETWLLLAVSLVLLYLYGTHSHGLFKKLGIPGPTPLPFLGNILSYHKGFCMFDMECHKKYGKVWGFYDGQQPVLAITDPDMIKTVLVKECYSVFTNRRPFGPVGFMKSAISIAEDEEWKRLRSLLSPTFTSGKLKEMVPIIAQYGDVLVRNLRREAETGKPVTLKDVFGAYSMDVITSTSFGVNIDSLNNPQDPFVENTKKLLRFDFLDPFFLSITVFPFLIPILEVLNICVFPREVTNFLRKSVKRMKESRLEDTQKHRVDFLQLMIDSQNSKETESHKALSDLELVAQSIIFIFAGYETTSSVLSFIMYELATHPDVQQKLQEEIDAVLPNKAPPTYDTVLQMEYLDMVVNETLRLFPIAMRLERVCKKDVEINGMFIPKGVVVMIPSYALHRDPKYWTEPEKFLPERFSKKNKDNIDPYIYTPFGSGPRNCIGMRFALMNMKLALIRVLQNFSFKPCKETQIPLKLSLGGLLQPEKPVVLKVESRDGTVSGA
# Inconclusive results, whose numbers are uncertain, are shown with a selection of clear calls. For some of these results: Potencies beside an inconclusive call are fits to weak or partial responses and may not hold up. The source made the active and inactive calls. The calls were made as follows, unless noted: active = hit-call score of the fitted dose curve at least 0.9, where 1 is the maximum; inconclusive = response in the unintended direction; inactive = score below 0.9.
# Columns and labels:
# [1] = read-out: HMG-CoA synthase (HMGCS2), HMGCS2 (gene 3158); test: CLD_HMGCS2_6hr: CellzDirect (CLD) Gene Expression Assay for HMG-CoA synthase (HMGCS2) at 6 hours (AID 2283682);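 also: actives raise HMGCS2 transcript above the 0.2% DMSO vehicle baseline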
# How it was run: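 HMGCS2 transcript induction read by quantitative nuclease protection with chemiluminescence, 6 h after dosing of primary human hepatocytes. Baseline was 0.2% DMSO vehicle; phase-contrast morphology gave a yes/no cytotoxicity annotation.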
# [2] = read-out: Broad substrate specificity ATP-binding cassette transporter ABCG2 (Homo sapiens) (UniProt Q9UNQ0); test: CLD_ABCG2_24hr: CellzDirect (CLD) Gene Expression Assay for ABC Transporter (ABCG2) at 24 hours (AID 2283685);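 also: AC50 is for induction meaning signal gain over DMSO vehicle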
# How it was run: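 ABCG2 mRNA induction, read as gain of chemiluminescent signal over 0.2% DMSO, was measured by quantitative nuclease protection at 24 h. Cultured human liver hepatocytes were given fresh dosing solutions of test chemicals at several concentrations each day.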
# [3] = read-out: Cytochrome P450 2B6 (Homo sapiens) (UniProt P20813); test: CLD_CYP2B6_24hr: CellzDirect (CLD) Gene Expression Assay for xenobiotic metabolism (CYP2B6) at 24 hours (AID 2283686)
# How it was run: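 qNPA chemiluminescent measurement of mRNA at 24 hours in human primary hepatocyte cultures from two donor preparations, with daily fresh dosing and 0.2% DMSO vehicle as baseline. Morphology-based cytotoxicity flagged yes/no.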
# [4] = read-out: HMG-CoA synthase (HMGCS2), HMGCS2 (gene 3158); test: CLD_HMGCS2_24hr: CellzDirect (CLD) Gene Expression Assay for HMG-CoA synthase (HMGCS2) at 24 hours (AID 2283691)
# How it was run: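 qNPA with S1 nuclease digestion and chemiluminescent detection gave HMGCS2 transcript levels, fitted upward against 0.2% DMSO vehicle. Cultured human hepatocytes (two donors) received fresh compound daily and were harvested at 24 h; phase-contrast morphology flagged cytotoxicity.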
# [5] = read-out: Glyceraldehyde-3-phosphate dehydrogenase (Homo sapiens) (UniProt P04406); test: CLD_GAPDH_24hr: CellzDirect (CLD) Gene Expression Assay for Baseline Control (Glyceraldehyde 3-phosphate dehydrogenase) at 24 hours (AID 2283692)
# How it was run: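 GAPDH baseline-control readout: qNPA chemiluminescent mRNA signal in human primary hepatocytes harvested 24 h after daily dosing, normalised to 0.2% DMSO with positive fitting direction; cytotoxicity annotated by phase-contrast morphology.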
# [6] = read-out: alkyl and aryl transferase (GSTA2), GSTA2 (gene 2939); test: CLD_GSTA2_24hr: CellzDirect (CLD) Gene Expression Assay for alkyl and aryl transferase (GSTA2) at 24 hours (AID 2283693)
# How it was run: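 GSTA2 transcript levels were quantified by quantitative nuclease protection assay in primary human hepatocytes 24 h after daily dosing with fresh solutions at multiple concentrations; 0.2% DMSO vehicle as baseline, cytotoxicity flagged morphologically.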
# [7] = read-out: ABC Transporter (ABCB11), ABCB11 (gene 8647); test: CLD_ABCB11_6hr: CellzDirect (CLD) Gene Expression Assay for ABC Transporter (ABCB11) at 6 hours (AID 2283675);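 also: hits raise ABCB11 mRNA level so AC50 marks induction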
# How it was run: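 Read-out was ABCB11 mRNA gain of signal by quantitative nuclease protection assay, relative to 0.2% DMSO vehicle, 6 h post-dose. Cells were primary human hepatocytes from two donors, treated across multiple concentrations; phase-contrast cytotoxicity noted yes/no.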
# [8] = read-out: Cytochrome P450 2B6 (Homo sapiens) (UniProt P20813); test: CLD_CYP2B6_6hr: CellzDirect (CLD) Gene Expression Assay for xenobiotic metabolism (CYP2B6) at 6 hours (AID 2283677);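 also: actives raise CYP2B6 transcript above DMSO baseline so AC50 marks an inducer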
# How it was run: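 CYP2B6 transcript levels, read by chemiluminescent qNPA, were fitted for increase versus DMSO baseline; cultured human liver hepatocytes from two donor preparations were harvested 6 h after exposure to test chemicals at multiple concentrations.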
# [9] = read-out: Glyceraldehyde-3-phosphate dehydrogenase (Homo sapiens) (UniProt P04406); test: CLD_GAPDH_6hr: CellzDirect (CLD) Gene Expression Assay for Baseline Control (Glyceraldehyde 3-phosphate dehydrogenase) at 6 hours (AID 2283681);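 as to outcome: active means increased signal relative to DMSO vehicle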
# How it was run: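 GAPDH baseline-control readout from qNPA (S1 nuclease digestion, probe hybridization, chemiluminescence) in lysates of cultured human hepatocytes harvested 6 h post-dosing. Chemicals tested at multiple concentrations versus 0.2% DMSO vehicle; microscopy-based cytotoxicity flagged yes/no.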
# [10] = read-out: xenobiotic metabolism (CYP1A2), CYP1A2 (gene 1544); test: CLD_CYP1A2_24hr: CellzDirect (CLD) Gene Expression Assay for xenobiotic metabolism (CYP1A2) at 24 hours (AID 2283683)
# How it was run: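 CYP1A2 mRNA induction measured by quantitative nuclease protection (chemiluminescent) in human primary hepatocytes 24 h after multi-concentration chemical dosing with daily fresh solutions. DMSO (0.2%) baseline; positive-direction fitting; morphology-based cytotoxicity noted.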
# [11] = read-out: Cytochrome P450 2C19 (Homo sapiens) (UniProt P33261); test: CLD_CYP2C19_24hr: CellzDirect (CLD) Gene Expression Assay for xenobiotic metabolism (CYP2C19) at 24 hours (AID 2283687);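 as to outcome: activity means mRNA induction above DMSO vehicle baseline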
# How it was run: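 CYP2C19 mRNA was quantified by qNPA chemiluminescence after 24 h of daily dosing of cultured human primary hepatocytes from two donors; vehicle was 0.2% DMSO, and increases over DMSO baseline were fitted.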
# [12] = CLD_ACTIN_24hr: CellzDirect (CLD) Gene Expression Assay for Baseline Control (Actin) at 24 hours (AID 2283670)
# How it was run: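 This 24 h qNPA (S1 nuclease protection, chemiluminescence) actin transcript readout in cultured human liver primary cells serves as baseline control. Signal is fitted upward relative to 0.2% DMSO; chemicals tested at multiple concentrations across two donor preparations.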
# [13] = read-out: ABC Transporter (ABCB11), ABCB11 (gene 8647); test: CLD_ABCB11_24hr: CellzDirect (CLD) Gene Expression Assay for ABC Transporter (ABCB11) at 24 hours (AID 2283674; active = hit-call score of the fitted dose curve at least 0.9, where 1 is the maximum; inactive = score below 0.9)
# How it was run: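 ABCB11 transcript was quantified by qNPA chemiluminescence in cultured human liver hepatocytes 24 hours after dosing. Fresh dosing solutions were applied on consecutive days, against a 0.2% DMSO vehicle. Cytotoxicity was noted by phase-contrast morphology.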
# [14] = read-out: Cytochrome P450 3A4 (Homo sapiens) (UniProt P08684); test: CLD_CYP3A4_6hr: CellzDirect (CLD) Gene Expression Assay for xenobiotic metabolism (CYP3A4) at 6 hours (AID 2283680)
# How it was run: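 CYP3A4 mRNA induction, 6 h after dosing of cultured primary human hepatocytes from two donors, read by quantitative nuclease protection (qNPA, chemiluminescence). Vehicle 0.2% DMSO as baseline; morphology-based cytotoxicity annotated yes/no.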
# [15] = read-out: sulfotransferase (SULT2A), SULT2A1 (gene 6822); test: CLD_SULT2A_6hr: CellzDirect (CLD) Gene Expression Assay for sulfotransferase (SULT2A) at 6 hours (AID 2283669);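 also: hits raise transcript level above the DMSO vehicle baseline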
# How it was run: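 Measured 6 h after dosing, SULT2A1 mRNA in human hepatocyte lysates was quantified by S1 nuclease protection with chemiluminescent detection. Increases fitted against 0.2% DMSO vehicle baseline; phase-contrast cytotoxicity recorded yes/no.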
# [16] = CLD_ACTIN_6hr: CellzDirect (CLD) Gene Expression Assay for Baseline Control (Actin) at 6 hours (AID 2283676);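 as to outcome: active means increased actin mRNA relative to DMSO vehicle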
# How it was run: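 Baseline actin transcript level measured by qNPA (S1 nuclease protection, chemiluminescence) in human hepatocyte cultures 6 h after chemical exposure; 0.2% DMSO vehicle as reference, cytotoxicity noted from morphology.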
# [17] = read-out: ABC Transporter (ABCB1), ABCB1 (gene 5243); test: CLD_ABCB1_24hr: CellzDirect (CLD) Gene Expression Assay for ABC Transporter (ABCB1) at 24 hours (AID 2283684);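 as to AC50: potency for increase in ABCB1 mRNA relative to DMSO vehicle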
# How it was run: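 ABCB1 mRNA induction versus 0.2% DMSO vehicle was read by qNPA chemiluminescence at 24 h. Cultured human hepatocytes from two donor preparations received daily fresh dosing, and phase-contrast cytotoxicity calls were annotated alongside the data.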
# [18] = read-out: xenobiotic metabolism (CYP1A1), CYP1A1 (gene 1543); test: CLD_CYP1A1_24hr: CellzDirect (CLD) Gene Expression Assay for xenobiotic metabolism (CYP1A1) at 24 hours (AID 2283673);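 also: CYP1A1 mRNA level by quantitative nuclease protection with chemiluminescence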
# How it was run: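 Transcript levels were read at 24 h by qNPA chemiluminescence in human liver primary cells. Cells got daily fresh dosing at multiple concentrations (vehicle 0.2% DMSO). Induction fitted upward against DMSO; phase-contrast cytotoxicity annotated.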
# [19] = read-out: glucuronosyltransferase (UGT1A1), UGT1A1 (gene 54658); test: CLD_UGT1A1_6hr: CellzDirect (CLD) Gene Expression Assay for glucuronosyltransferase (UGT1A1) at 6 hours (AID 2283672)
# How it was run: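 UGT1A1 mRNA induction, read by quantitative nuclease protection assay, 6 h after dosing primary human hepatocytes (two donors, 0.2% DMSO vehicle). Gain of signal fitted relative to vehicle.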
# [20] = read-out: Cytochrome P450 3A4 (Homo sapiens) (UniProt P08684); test: CLD_CYP3A4_24hr: CellzDirect (CLD) Gene Expression Assay for xenobiotic metabolism (CYP3A4) at 24 hours (AID 2283689)
# How it was run: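 CYP3A4 mRNA induction read by quantitative nuclease protection (chemiluminescence) 24 hr after dosing. Cultured human hepatocytes (two donor preparations) treated daily, vehicle 0.2% DMSO; phase-contrast morphology annotates cytotoxicity.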
compound,measurement,setting,value
CC1(C)C(C=C(Cl)Cl)C1C(=O)OCc1cccc(Oc2ccccc2)c1 (configuration not stated),outcome,[1],inactive
same,AC50,[2],inconclusive: 20 µM
same,AC50,[3],active: 7.12 µM
same,AC50,[4],inconclusive: 3.97 µM
same,outcome,[5],inactive
same,AC50,[6],inconclusive: 20 µM
CSC(=O)c1cccc2nnsc12,outcome,[7],inactive
same,outcome,[8],inactive
same,AC50,[9],inconclusive: 20 µM
same,AC50,[10],active: 20 µM
same,outcome,[11],inactive
same,AC50,[4],active: 7.33 µM
same,outcome,[5],inactive
same,AC50,[6],inconclusive: 0.119 µM
N#CSCSc1nc2ccccc2s1,outcome,[12],inactive
same,outcome,[13],inactive
same,outcome,[7],inactive
same,AC50,[8],inconclusive: 37.4 µM
same,AC50,[14],inconclusive: 2 µM
same,AC50,[9],inconclusive: 20 µM
same,AC50,[1],active: 7.13 µM
same,outcome,[3],inactive
same,AC50,[11],inconclusive: 6.29 µM
same,outcome,[4],inactive
CC(C)(c1ccc(O)cc1)c1ccc(O)cc1,outcome,[15],inactive
same,outcome,[12],inactive
same,outcome,[14],inactive
same,AC50,[10],inconclusive: 20 µM
same,outcome,[11],inactive
same,outcome,[4],inactive
same,AC50,[5],inconclusive: 20 µM
CN(C)C(=O)Nc1ccc(Cl)c(Cl)c1,AC50,[12],inconclusive: 20 µM
same,AC50,[16],inconclusive: 20 µM
same,AC50,[9],inconclusive: 33 µM
same,outcome,[1],inactive
same,AC50,[17],inconclusive: 20 µM
same,AC50,[2],inconclusive: 20 µM
same,AC50,[11],inconclusive: 33.2 µM
same,AC50,[4],inconclusive: 20 µM
same,AC50,[5],inconclusive: 20 µM
same,AC50,[6],inconclusive: 20 µM
CCOC(=O)COc1cc(-n2ncc(C(F)(F)F)c(C)c2=O)c(F)cc1Cl,outcome,[12],inactive
same,outcome,[18],inactive
same,AC50,[7],inconclusive: 20 µM
same,AC50,[16],inconclusive: 20 µM
same,outcome,[1],inactive
same,AC50,[10],inconclusive: 0.00455 µM
same,outcome,[4],inactive
same,AC50,[6],inconclusive: 0.0165 µM
Cc1nn(C)c(Oc2ccccc2)c1C=NOCc1ccc(C(=O)OC(C)(C)C)cc1,AC50,[12],inconclusive: 37.1 µM
same,AC50,[19],inconclusive: 0.473 µM
same,AC50,[13],active: 36.8 µM
same,AC50,[7],inconclusive: 1.89 µM
same,AC50,[8],inconclusive: 0.063 µM
same,AC50,[1],inconclusive: 0.0485 µM
same,outcome,[11],inactive
same,AC50,[4],inconclusive: 2 µM
same,AC50,[5],inconclusive: 20 µM
COC(=O)c1ccccc1C(=O)O,outcome,[12],inactive
same,outcome,[13],inactive
same,outcome,[7],inactive
same,outcome,[16],inactive
same,AC50,[14],inconclusive: 20 µM
same,outcome,[9],inactive
same,AC50,[2],inconclusive: 0.0896 µM
same,AC50,[3],inconclusive: 0.102 µM
same,outcome,[4],inactive
same,outcome,[5],inactive
COCCO,AC50,[15],inconclusive: 0.0004 µM
same,AC50,[12],inconclusive: 20 µM
same,AC50,[19],inconclusive: 20 µM
same,AC50,[18],inconclusive: 0.0004 µM
same,outcome,[13],inactive
same,AC50,[7],inconclusive: 20 µM
same,outcome,[16],inactive
same,AC50,[1],inconclusive: 0.0004 µM
same,AC50,[10],inconclusive: 0.00124 µM
same,outcome,[17],inactive
same,AC50,[11],inconclusive: 20 µM
same,AC50,[20],inconclusive: 0.0004 µM
same,AC50,[4],inconclusive: 20 µM
same,outcome,[5],inactive

# Part of the list above, as tab-separated lines:
compound	measurement	setting	value
CN(C)C(=O)Nc1ccc(Cl)c(Cl)c1	outcome	[1]	inactive
same	AC50	[17]	inconclusive: 20 µM
same	AC50	[2]	inconclusive: 20 µM
same	AC50	[11]	inconclusive: 33.2 µM
same	AC50	[4]	inconclusive: 20 µM
